# Assay results: article PMC12408316, “Identification of galectin-9 and its antibacterial function in Yellow River carp (Cyprinus carpio haematopterus)” (Frontiers in Immunology, 2025)
# System: T1, rCcGal-9 (recombinant CcGal-9, galectin-9)
# T1 construct: gene LOC109103103
# Details: 20 µg rCcGal-9 preincubated with sugar 3 h; wells coated with S. aureus or A. hydrophila
row,Compound,competitive ELISA: sugar inhibits rCcGal-9 binding to coated bacteria
1,OC[C@H]1OC(O)[C@H](O)[C@@H](O)[C@H]1O (stereo partly drawn) [D-galactose],"D-galactose, D-xylose, sucrose, N-acetyl-D-glucosamine and L-rhamnose were capable of inhibiting"
2,OC[C@H]1OC(O)[C@H](O)[C@@H](O)[C@@H]1O (stereo partly drawn) [D-glucose],"D-glucose, D-galactose, D-xylose, sucrose, N-acetyl-D-glucosamine and L-rhamnose were capable of inhibiting"
3,OC[C@H]1OC(O)[C@@H](O)[C@@H](O)[C@@H]1O (stereo partly drawn) [D-mannose],"nine distinct saccharides, with a notably higher affinity for L-fucose and D-mannose"
4,OC1OC[C@@H](O)[C@H](O)[C@H]1O (stereo partly drawn) [D-xylose],"D-xylose, sucrose, N-acetyl-D-glucosamine and L-rhamnose were capable of inhibiting"
5,C[C@@H]1OC(O)[C@@H](O)[C@H](O)[C@@H]1O (stereo partly drawn) [L-fucose],"nine distinct saccharides, with a notably higher affinity for L-fucose and D-mannose"
6,C[C@@H]1OC(O)[C@H](O)[C@H](O)[C@H]1O (stereo partly drawn) [L-rhamnose],N-acetyl-D-glucosamine and L-rhamnose were identified as significant ligands of rCcGal-9
7,CC(=O)N[C@H]1C(O)O[C@H](CO)[C@@H](O)[C@@H]1O (stereo partly drawn) [N-acetyl-D-glucosamine],N-acetyl-D-glucosamine and L-rhamnose were identified as significant ligands of rCcGal-9
8,CC(=O)N[C@@H]1C(O)O[C@H](CO)[C@@H](O)[C@@H]1O (stereo partly drawn) [N-acetyl-D-mannosamine],"N-acetyl-D-mannosamine, L-fucose, D-mannose, D-glucose, D-galactose, D-xylose, sucrose, N-acetyl-D-glucosamine and L-rhamnose were capable of inhibiting"
9,OC[C@H]1O[C@@](CO)(O[C@H]2O[C@H](CO)[C@@H](O)[C@H](O)[C@H]2O)[C@@H](O)[C@@H]1O [sucrose],"sucrose, N-acetyl-D-glucosamine and L-rhamnose were capable of inhibiting"
